The test concerns the target P-glycoprotein (human (endogenous in 5637)) (UniProt P08183). Nature of the test: co-IP; endogenous P-gp immunoprecipitated from 5637-GEM cells (LIST knockdown, c-Src knockdown or c-Src inhibitor dasatinib), immunoblotting for Cav1. For orientation: A western blot detects proteins with antibodies after separation by electrophoresis.

Sequences of proteins named here, by UniProt entry; tags and fusion partners are left off.
UniProt P08183: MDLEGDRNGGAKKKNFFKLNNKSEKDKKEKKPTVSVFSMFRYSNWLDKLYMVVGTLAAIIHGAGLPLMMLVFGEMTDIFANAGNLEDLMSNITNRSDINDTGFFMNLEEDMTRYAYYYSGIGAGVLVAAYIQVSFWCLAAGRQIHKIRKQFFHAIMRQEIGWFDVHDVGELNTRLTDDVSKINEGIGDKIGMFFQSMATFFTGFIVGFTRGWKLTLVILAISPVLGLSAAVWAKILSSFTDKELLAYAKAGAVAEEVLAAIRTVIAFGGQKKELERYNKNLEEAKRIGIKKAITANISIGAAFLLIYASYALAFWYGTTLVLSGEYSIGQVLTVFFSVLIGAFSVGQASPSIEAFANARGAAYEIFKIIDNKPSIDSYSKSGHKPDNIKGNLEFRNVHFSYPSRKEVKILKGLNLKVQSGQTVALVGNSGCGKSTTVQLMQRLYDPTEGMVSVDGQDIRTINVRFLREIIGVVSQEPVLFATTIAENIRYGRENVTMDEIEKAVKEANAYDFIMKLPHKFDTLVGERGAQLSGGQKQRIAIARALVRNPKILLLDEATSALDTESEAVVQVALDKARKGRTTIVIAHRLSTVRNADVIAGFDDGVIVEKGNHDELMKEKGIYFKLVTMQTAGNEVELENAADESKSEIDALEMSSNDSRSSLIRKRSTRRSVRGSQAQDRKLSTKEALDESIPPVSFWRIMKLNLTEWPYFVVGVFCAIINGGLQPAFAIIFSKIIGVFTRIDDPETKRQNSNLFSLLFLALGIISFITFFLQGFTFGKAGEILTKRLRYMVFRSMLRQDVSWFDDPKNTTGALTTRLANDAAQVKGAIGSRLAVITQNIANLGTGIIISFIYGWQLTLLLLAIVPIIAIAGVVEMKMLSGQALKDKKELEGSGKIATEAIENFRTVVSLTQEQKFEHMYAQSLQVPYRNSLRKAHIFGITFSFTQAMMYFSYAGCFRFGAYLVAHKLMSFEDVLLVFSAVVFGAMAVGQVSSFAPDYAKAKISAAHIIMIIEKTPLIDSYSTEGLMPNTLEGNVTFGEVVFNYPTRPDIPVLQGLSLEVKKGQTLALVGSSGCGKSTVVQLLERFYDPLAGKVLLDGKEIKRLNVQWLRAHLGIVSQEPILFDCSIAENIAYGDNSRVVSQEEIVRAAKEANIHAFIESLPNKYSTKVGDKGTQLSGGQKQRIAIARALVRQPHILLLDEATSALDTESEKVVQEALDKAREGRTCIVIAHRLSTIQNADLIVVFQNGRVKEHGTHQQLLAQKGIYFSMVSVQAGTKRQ
UniProt Q03135: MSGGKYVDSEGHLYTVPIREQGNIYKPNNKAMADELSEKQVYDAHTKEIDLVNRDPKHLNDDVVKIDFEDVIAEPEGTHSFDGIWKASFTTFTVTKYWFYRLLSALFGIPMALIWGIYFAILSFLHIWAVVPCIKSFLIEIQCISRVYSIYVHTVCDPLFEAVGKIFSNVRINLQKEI

These are yes or no findings as the source states them, for the method shown. In cells and extracts the contact can be indirect. Some entries that bind do so weakly or less than the wild type.

Regarding Cav1 (from UniProt Q03135 1-178), the binding entry is recorded as “binds”.

Source of the values: PMC10369257.
